# Assay results from PubChem BioAssay AID504842 (National Center for Advancing Translational Sciences (NCATS), 2011).
# Hit rate of the full screen: of about 330,000 compounds, about 100 (0.03%) were called active. This list was built around the results that the source calls inconclusive (neither active nor inactive); the mix of calls is not that of the screen. The call rests on the fitted dose curve; in most records, active means well fitted inhibition curve with a large enough effect; inconclusive means small, poorly fitted or top-dose-only effect; inactive means flat fitted curve, though single readings scatter. Where the call is inconclusive, the potency comes from a doubtful curve fit.
# Tested on: Chaperonin Mm-Cpn (Methanococcus maripaludis)
# Assay: Inhibitors of TCP-1 ring complex (TRiC) of Methanococcus maripaludis (MmCpn): qHTS; further: nearly all actives have a fitted effect of over 80% in size;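 on potency: enzyme at 25 nM with ATP substrate at 10 µM during the reaction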
# Conditions: purified Mm-Cpn ATPase, ADP Transcreener TR-FRET; activity, negative = inhibition: at the top concentration
# How it was run: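 Measured: ADP formation by purified Mm-CPN. Conditions: 25 nM protein, 10 uM ATP, Tris pH 7.4 with Mg2+, K+ and DTT, 37°C for 30 min. Detection: Transcreener HTRF after 30 min at room temperature.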
# On the % scale 0 is the no-effect control and ±100 the full control effect; potency means the concentration at half of the fitted maximal effect.
Structure (SMILES),Potency,"activity, negative = inhibition"
CCC(C)NC(=O)c1cc2cc3ccc(OC)cc3nc2s1 (stereo unspecified),"inconclusive: 100 µM [inhibitor, single point]",
O=C(Nc1nc(-c2cccs2)cs1)c1cccc(S(=O)(=O)N2CCCCCC2)c1,"inconclusive: 44.7 µM [inhibitor, single point]",
COc1ccc(/C=C2\SC(=O)NC2=S)cc1OC,,inactive: -6.19%
COc1ccc(CCNC(=O)c2ccccc2SC)cc1,"inconclusive: 79.4 µM [inhibitor, single point]",
CC1(C)Cc2c(C#N)c(NC3CCCCC3)nc(-c3ccco3)c2CO1,,inactive: -4.03%
O=C(CSc1ncc(-c2ccccc2)nn1)NCc1ccco1,,inactive: -1.24%
[O-]/C(=C(\C(=S)Nc1ccccc1F)[n+]1ccccc1)c1ccc(OC(F)F)cc1,"inconclusive: 100 µM [inhibitor, single point]",
O=C1C=C(c2ccc(Br)c3ccccc23)C[C@@H](c2ccc3c(c2)OCO3)C1,"inconclusive: 25.1 µM [inhibitor, partial curve, poor fit]",
CC(C)(C)NC(=O)CSc1nnc(-c2ccccn2)n1-c1ccccc1,"inconclusive: 17.8 µM [inhibitor, single point]",
COc1cccc(NC(=O)c2ccc(-c3ccc([N+](=O)[O-])cc3)o2)c1,"inconclusive: 89.1 µM [inhibitor, single point]",
Cc1ccc(SCC(=O)OCC(=O)N(C)CC(=O)Nc2ccccc2Cl)cc1,"inconclusive: 22.4 µM [inhibitor, single point]",
S=C(c1cn(CCOc2cccc3ccccc23)c2ccccc12)N1CCCC1,active: 50.1 µM,
Cc1cc(C)c(S(=O)(=O)c2ccccc2)c(OC(=O)c2ccc(Cl)cc2Cl)n1,"inconclusive: 25.1 µM [inhibitor, single point]",
CCCn1c(N)c(C(=O)CSc2nnc(-c3ccco3)n2Cc2ccccc2)c(=O)[nH]c1=O,"inconclusive: 11.2 µM [inhibitor, single point]",
CC(C)(C)c1ccc(/C=C/C(=O)NC2=NCCS2)cc1,"inconclusive: 79.4 µM [inhibitor, single point]",
CC(C)c1ccc(/C=C2\SC(=O)N(CC(=O)NC3C=CS(=O)(=O)C3)C2=O)cc1 (stereo unspecified),"inconclusive: 22.4 µM [inhibitor, single point]",
Cc1ccc2nc(NC(=O)c3ccco3)sc2c1,"inconclusive: 63.1 µM [inhibitor, single point]",
CCCCNC(=O)CNC(=O)c1cccs1,,inactive: -0.418%
CCc1ccc(NC(=O)C2CCCN(S(=O)(=O)c3ccc4[nH]c(=O)ccc4c3)C2)cc1 (stereo unspecified),,inactive: -4.29%
COc1ccccc1NC(=O)COc1ccc(C(=O)NCc2ccccc2)cc1OC,"inconclusive: 56.2 µM [inhibitor, single point]",
O=C(CNC(=O)C1COc2ccccc2O1)Nc1cc(Cl)ccc1Cl (stereo unspecified),"inconclusive: 12.6 µM [inhibitor, single point]",
Cc1cc(C)nc(SCC(=O)c2ccc(O)c(O)c2)n1,,inactive: 2.66%
Cc1cc(C)c(S(=O)(=O)Cc2ccccc2)c(Cl)n1,"inconclusive: 35.5 µM [inhibitor, single point]",
N/C(Cc1ccc([N+](=O)[O-])cc1)=N\OC(=O)Cc1ccccc1,"inconclusive: 100 µM [inhibitor, single point]",

Structure (SMILES),Potency,"activity, negative = inhibition"
COC(=O)c1ccc(CSc2ccc3nnc(-c4ccc(F)cc4)n3n2)o1,"inconclusive: 50.1 µM [inhibitor, single point]",
CCCCOC(=O)C(C)Nc1n[nH]c(=S)[nH]c1=O (stereo unspecified),"inconclusive: 112 µM [inhibitor, partial curve, poor fit]",
COc1cc(NC(=O)[C@H]2CSCN2C(=O)[C@@H]2CCC(=O)N2)cc(OC)c1OC,"inconclusive: 22.4 µM [inhibitor, single point]",
CS(=O)(=O)Nc1ccc(C2=NN(C(=O)C3CCCCC3)C(c3cccs3)C2)cc1 (stereo unspecified),,inactive: -15.2%
CN(C)c1cccc(C(=O)OCC(=O)N2CCc3ccccc3C2)c1,"inconclusive: 398 µM [inhibitor, partial curve, poor fit]",
COc1ccc(-c2nc(-c3cccnc3)no2)cc1OC,"inconclusive: 15.8 µM [inhibitor, single point]",
CC1CCCC(N2C(=O)NC(NC(=O)c3ccco3)(C(F)(F)F)C2=O)C1C (stereo unspecified),,inactive: -1.39%
CC(C)Oc1cccc(C(=O)NC(=S)Nc2ccc3c4c(cccc24)CC3)c1,,inactive: -1.85%
Cc1nc2ccccc2c(=O)n1C1CCCCCC1,"inconclusive: 31.6 µM [inhibitor, single point]",
COC(c1ccc(Cl)cc1)(c1ccc(Cl)cc1)C(Oc1nc(C)cc(C)n1)C(=O)O (stereo unspecified),,inactive: -0.0318%
CCOC(=O)c1cnc(SCC(C)C)nc1N,,inactive: 0.941%
COc1cccc(NC(=O)CSc2nc3ccccc3nc2N2CCOCC2)c1,"inconclusive: 398 µM [inhibitor, partial curve, poor fit]",
COc1ccc(OC)c(S(=O)(=O)Nc2ccc(O)c(Sc3ncn[nH]3)c2)c1,"inconclusive: 20 µM [inhibitor, single point]",
O=C1CCC(=O)N1c1ccc(NCCc2cccc(F)c2)c([N+](=O)[O-])c1,,inactive: -1.28%
CC(=O)CSc1nc(N)c(C#N)c(-c2cccs2)c1C#N,"inconclusive: 100 µM [inhibitor, single point]",
O=c1c2c3n(c(=S)nc2[nH]n1-c1ccccc1)CCCCC3,,inactive: -1.1%
Cc1cc(Br)ccc1NC(=O)c1cnc(N2CCN(c3ccccn3)CC2)c2ccccc12,"inconclusive: 100 µM [inhibitor, single point]",
CCN(C(=O)CN1CCN(C)CC1)c1cccc2ccccc12,,inactive: -4.42%
COc1ccc(-c2cn3c(C)c(C(=O)Nc4cc(NC(C)=O)ccc4OC)sc3n2)cc1,"inconclusive: 39.8 µM [inhibitor, partial curve, poor fit]",
COc1ccc(Cl)cc1NC(=O)CCc1nnc2ccc(N3CCC4(CC3)OCCO4)nn12,"inconclusive: 100 µM [inhibitor, single point]",
CCOC(=O)c1ccc(NC(=O)CC2C(=O)OCCN2CC)cc1 (stereo unspecified),,inactive: -0.141%
O=C(NCc1ccccn1)c1c(O)c2cccc3c2n(c1=O)CC3,"inconclusive: 15.8 µM [inhibitor, single point]",
CCN(CC)C(=O)C1CCCN(C(=O)Nc2ccc3nsnc3c2)C1 (stereo unspecified),"inconclusive: 200 µM [inhibitor, partial curve, poor fit]",
O=C(NNC(=O)c1cccnc1)Nc1cccc(Cl)c1Cl,"inconclusive: 15.8 µM [inhibitor, single point]",

Structure (SMILES),Potency,"activity, negative = inhibition"
CCOc1ccc(Br)cc1S(=O)(=O)Nc1ccccc1N1CCOCC1,"inconclusive: 89.1 µM [inhibitor, single point]",
CN(CC(=O)Nc1cccc(F)c1)C(=O)Cn1c(=O)oc2ccccc21,"inconclusive: 11.2 µM [inhibitor, single point]",
Cc1cccc(/C=c2\s/c(=C\C(=O)C(C)(C)C)[nH]c2=O)c1,"inconclusive: 31.6 µM [inhibitor, partial curve, poor fit]",
CCOC(=O)C1CCN(CC(C)(C)NS(=O)(=O)c2ccc(C)cc2)CC1,,inactive: -1.91%
CCc1ccc(C(C)NC(=S)NC2CCCCC2)cc1 (stereo unspecified),,inactive: 1.23%
COc1cccc(C(=O)NCc2ccc3c(c2)cc(C)n3C)c1,"inconclusive: 178 µM [inhibitor, partial curve, poor fit]",
Cc1ncc([N+](=O)[O-])n1S(=O)(=O)c1cc(Cl)ccc1Cl,"inconclusive: 447 µM [inhibitor, partial curve, poor fit]",
COC(=O)c1c(NC(=O)c2ccc(Br)o2)sc(C)c1C,,inactive: -0.175%
CCOC(=O)c1sc2nccc(OC)c2c1N=CN(C)C,"inconclusive: 11.2 µM [inhibitor, single point]",
O=C(NC1=NCCS1)c1cc(-c2ccc(-c3ccccc3)cc2)nc2ccccc12,,inactive: -1.57%
COc1ccccc1C1=NOC(Cn2c(NCCOCCO)nc3c2c(=O)n(C)c(=O)n3C)C1 (stereo unspecified),"inconclusive: 17.8 µM [inhibitor, single point]",
CC(C)(C)c1cc(CCC(=O)N2CCCC2)cc(C(C)(C)C)c1O,,inactive: 1.63%
COc1ccc(C2C(C(C)=O)=C(O)C(=O)N2Cc2ccccc2)c(OC)c1 (stereo unspecified),,inactive: -3.26%
O=c1[nH]c(NNC(=S)NCc2ccccc2)nc2c1C1(CCCCC1)Cc1ccccc1-2,,inactive: 1.45%
CCC1Nc2ncnc(N3CCCCC3)c2N(Cc2ccc(OC)cc2)C1=O (stereo unspecified),"inconclusive: 79.4 µM [inhibitor, single point]",
COc1ccc(OCC(=O)Nc2cc3c(cc2C(=O)O)OCCCO3)cc1,"inconclusive: 100 µM [inhibitor, single point]",
CCN1CCN(C(=O)CCc2nnc(CCc3ccc(OC)cc3)o2)[C@@H](C)C1=O,"inconclusive: 14.1 µM [inhibitor, single point]",
O=C(COc1ccccc1[N+](=O)[O-])NCc1cccnc1,"inconclusive: 89.1 µM [inhibitor, single point]",
CC(NC(=O)c1ccc(Cl)cc1)C1CC2CCC1C2 (stereo unspecified),"inconclusive: 100 µM [inhibitor, single point]",
C=COC(=O)CSc1snc(SCC(=O)OC)c1C#N,,inactive: 1.24%
COc1ccc(C(=O)Nc2cccc(-c3csc(C)n3)c2)cc1S(=O)(=O)N1CCCC1,"inconclusive: 100 µM [inhibitor, partial curve, poor fit]",
O=C(CN1C(=O)c2ccccc2S1(=O)=O)c1ccc(OC(F)F)cc1,,inactive: -5.25%
Cn1c(N)c(C(=O)COC(=O)COc2cccc(Br)c2)c(=O)n(C)c1=O,"inconclusive: 50.1 µM [inhibitor, single point]",

# Sorted by length of the SMILES (largest number first): some entries from above.
Structure (SMILES),Potency,"activity, negative = inhibition"
Cc1cc(Br)ccc1NC(=O)c1cnc(N2CCN(c3ccccn3)CC2)c2ccccc12,"inconclusive: 100 µM [inhibitor, single point]",
COc1ccccc1NC(=O)COc1ccc(C(=O)NCc2ccccc2)cc1OC,"inconclusive: 56.2 µM [inhibitor, single point]",
COc1cccc(NC(=O)CSc2nc3ccccc3nc2N2CCOCC2)c1,"inconclusive: 398 µM [inhibitor, partial curve, poor fit]",
CN(C)c1cccc(C(=O)OCC(=O)N2CCc3ccccc3C2)c1,"inconclusive: 398 µM [inhibitor, partial curve, poor fit]",
O=C(CSc1ncc(-c2ccccc2)nn1)NCc1ccco1,,inactive: -1.24%
